Test results reported in article PMC3496702.
No constants are given. Whether binding was seen depends on the method and setting. Binding seen in cells or lysates may run through a third protein. Some binding calls cover weakened binding; strength is not graded here. For some of these results: Where a sequence is shown, tags or fusion partners need not be part of it.

Sequences of proteins named here, by UniProt entry; tags and fusion partners are left off. A change or cut given only in a name is not applied to a line headed by its entry.
UniProt P12004: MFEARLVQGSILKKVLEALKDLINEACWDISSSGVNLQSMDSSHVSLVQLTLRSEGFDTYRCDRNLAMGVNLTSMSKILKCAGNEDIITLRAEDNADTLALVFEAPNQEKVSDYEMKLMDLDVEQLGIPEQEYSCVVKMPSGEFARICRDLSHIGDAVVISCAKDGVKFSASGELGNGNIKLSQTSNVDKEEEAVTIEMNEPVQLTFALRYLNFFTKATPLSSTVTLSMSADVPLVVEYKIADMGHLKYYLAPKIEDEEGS
UniProt P23025: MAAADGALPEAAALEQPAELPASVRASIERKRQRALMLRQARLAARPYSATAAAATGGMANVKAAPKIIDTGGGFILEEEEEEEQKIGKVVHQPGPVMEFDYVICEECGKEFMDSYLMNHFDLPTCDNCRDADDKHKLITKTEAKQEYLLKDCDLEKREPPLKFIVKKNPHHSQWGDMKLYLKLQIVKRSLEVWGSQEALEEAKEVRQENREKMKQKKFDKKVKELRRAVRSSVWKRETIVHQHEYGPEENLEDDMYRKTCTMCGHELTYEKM

What was measured:
[1] = molecular target: YFP-tagged proliferating cell nuclear antigen (YFP-PCNA) (UniProt P12004); assay: co-IP; α-YFP beads on soluble and chromatin-enriched fractions of HeLa cells stably expressing YFP-PCNA; extracts treated with a DNAse/RNAse cocktail; 4°C overnight; blot for endogenous XPA; also after UVR (unpublished data)
[2] = molecular target: proliferating cell nuclear antigen (PCNA), endogenous (human (endogenous in HeLa)) (UniProt P12004); assay: co-IP; α-PCNA (PC10) beads on soluble and chromatin-enriched fractions of untransfected HeLa cells; extracts treated with a DNAse/RNAse cocktail; 4°C overnight; α-YFP beads as control; also after UVR (unpublished data)
[3] = molecular target: CFP-tagged PCNA (CFP-PCNA) (UniProt P12004); assay: FRET or BRET; sensitized emission, normalized FRET (N_FRET) between CFP- and YFP-tagged proteins in live, transiently transfected HeLa cells, 37°C
[4] = molecular target: CFP-tagged PCNA (CFP-PCNA) (UniProt P12004); assay: FRET or BRET; unpublished data: FRET of XPA wt or XPA F164A with PCNA in HeLa cells (endogenous XPA present)
[5] = molecular target: CFP-tagged PCNA (CFP-PCNA) (UniProt P12004); assay: FRET or BRET; sensitized emission, normalized FRET (N_FRET) between CFP- and YFP-tagged proteins in live, transiently transfected XPA-/- cells, 37°C
[6] = molecular target: CFP-tagged PCNA (CFP-PCNA) (UniProt P12004); assay: FRET or BRET; sensitized emission, normalized FRET (N_FRET) between CFP- and YFP-tagged proteins in live, transiently transfected HeLa cells, 37°C; remark: listed apart in the source

In the case of “xeroderma pigmentosum group A (XPA) protein, endogenous (from UniProt P23025 1-273)”, the binding [1] is reported as “binds” and the binding [2] is reported as “binds”.

For “YFP-tagged XPA (YFP-XPA) (from UniProt P23025 1-273)”, the binding [3] was “binds”, the binding [4] was “binds” and the binding [5] was “binds”.

With “YFP-XPA F164A (from UniProt P23025 1-273)” the binding [4] was “binds”.

In the case of MPLKFIVK (domain or fragment, UniProt P23025 161-167) [Met-XPA_(161−167)-YFP], the binding [6] is reported as “binds”.
